Earlier results in US10501472B2, “Method to isolate inoscavin a from Fulviformes fastuosus and medicinal preparation thereof to treat rhabdomyosarcoma cancer conditions” (University of Colombo, priority 2015, dated 2019).
At least one compound was matched to its structure with a doubt left.

Tested on: RD cells
Settings: read-out: inhibitory concentration (IC50), MTT induced cell death in RD cells; cited from earlier work

SMILES: O=c1c2cc(O)c(O)cc2oc2cc(O)c([C@@H]3O[C@H](CO)[C@@H](O)[C@H](O)[C@H]3O)c(O)c12 [mangiferin]
- IC50: 70 µM
